The text below walks through data of article PMC3184067.

Results are given in words; binding and its absence hold for the method and conditions named. In cells and extracts the contact can be indirect. Some results given as binding are weak or reduced against the parent protein; the word gives no strength.

For this assay, the target named is T1, Myristoylated Alanine-Rich C Kinase Substrate (MARCKS) protein (human (endogenous in NHBE)) (UniProt P29966).
T1 sequence: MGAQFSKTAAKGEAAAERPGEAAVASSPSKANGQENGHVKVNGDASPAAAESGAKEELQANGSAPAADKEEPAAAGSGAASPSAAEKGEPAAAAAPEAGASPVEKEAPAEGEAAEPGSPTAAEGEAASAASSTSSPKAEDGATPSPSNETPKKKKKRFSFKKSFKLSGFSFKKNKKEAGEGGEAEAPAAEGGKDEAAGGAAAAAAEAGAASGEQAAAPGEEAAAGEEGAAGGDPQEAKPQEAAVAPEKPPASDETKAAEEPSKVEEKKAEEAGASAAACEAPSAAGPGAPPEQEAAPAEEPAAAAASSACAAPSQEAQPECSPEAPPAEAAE
The assay can be described thus: co-IP; MARCKS immunoprecipitated from NHBE whole cell lysates (antibody overnight at 4°C, Protein G Dynal beads 3 hr, washed three times with cold PBS); blots probed with anti-CSP, anti-HSP70 and anti-hCLCA1; whole molecule rabbit IgG as negative control.

B1: Cysteine string protein (CSP) (protein, UniProt Q9H3Z4 1-198)
chain: MADQRQRSLSTSGESLYHVLGLDKNATSDDIKKSYRKLALKYHPDKNPDNPEAADKFKEINNAHAILTDATKRNIYDKYGSLGLYVAEQFGEENVNTYFVLSSWWAKALFVFCGLLTCCYCCCCLCCCFNCCCGKCKPKAPEGEETEFYVSPEDLEAQLQSDEREATDTPIVIQPASATETTQLTADSHPSYHTDGFN
On to B1, for which the binding entry is recorded as “binds”.

B2: calcium activated chloride channel hCLCA1 (the human ortholog of murine Gob-5) (protein, UniProt A8K7I4 22-914)
chain: NSLIQLNNNGYEGIVVAIDPNVPEDETLIQQIKDMVTQASLYLLEATGKRFYFKNVAILIPETWKTKADYVRPKLETYKNADVLVAESTPPGNDEPYTEQMGNCGEKGERIHLTPDFIAGKKLAEYGPQGRAFVHEWAHLRWGVFDEYNNDEKFYLSNGRIQAVRCSAGITGTNVVKKCQGGSCYTKRCTFNKVTGLYEKGCEFVLQSRQTEKASIMFAQHVDSIVEFCTEQNHNKEAPNKQNQKCNLRSTWEVIRDSEDFKKTTPMTTQPPNPTFSLLQIGQRIVCLVLDKSGSMATGNRLNRLNQAGQLFLLQTVELGSWVGMVTFDSAAHVQNELIQINSGSDRDTLAKRLPAAASGGTSICSGLRSAFTVIRKKYPTDGSEIVLLTDGEDNTISGCFNEVKQSGAIIHTVALGPSAAQELEELSKMTGGLQTYASDQVQNNGLIDAFGALSSGNGAVSQRSIQLESKGLTLQNSQWMNGTVIVDSTVGKDTLFLITWTMQPPQILLWDPSGQKQGGFVVDKNTKMAYLQIPGIAKVGTWKYSLQASSQTLTLTVTSRASNATLPPITVTSKTNKDTSKFPSPLVVYANIRQGASPILRASVTALIESVNGKTVTLELLDNGAGADATKDDGVYSRYFTTYDTNGRYSVKVRALGGVNAARRRVIPQQSGALYIPGWIENDEIQWNPPRPEINKDDVQHKQVCFSRTSSGGSFVASDVPNAPIPDLFPPGQITDLKAEIHGGSLINLTWTAPGDDYDHGTAHKYIIRISTSILDLRDKFNESLQVNTTALIPKEANSEEVFLFKPENITFENGTDLFIAIQAVDKVDLKSEISNIARVSLFIPPQTPPETPSPDETSAPCPNIHINSTIPGIHILKIMWKWIGELQLSIA
As for B2, the binding entry was “binds”.
